Mtb glucose medium: 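Growth of Mycobacterium tuberculosis over 3 days (7H9 medium with glucose and tyloxapol); the read-out is not stated. Tested at 50 µM. Direction is inferred from retests: higher values go with more growth inhibition. Size under these conditions: about 69,000 compounds, about 760 of them at 50% or above in at least one test.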
Mtb cholesterol medium: 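Growth of Mycobacterium tuberculosis over 4 days (cholesterol / DPPC medium with tyloxapol); the read-out is not stated. Compounds at 50 µM. Direction is inferred from retests: higher values go with more growth inhibition. About 69,000 compounds were tested under these conditions; 0.54% (about 370) showed 50% or more at least once.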

Each number is a percent effect as filed.
How 0% and 100% were set is not recorded. Most values in the screen are low, and negative values occur.
Compounds were drawn at random from those tested, without regard to their results.
Two or more numbers in one place are separate tests of the same structure; such repeats can differ widely.

With COc1cccc(C(CO)NC(=O)Cc2cccc(C)c2)c1 (configuration not stated) the screen gave Mtb glucose medium: -21.06%; Mtb cholesterol medium: 6.469% & -2.447%.
With Cc1ccc(-c2nc(CN3CCN(S(=O)(=O)N(C)C)CC3)cs2)o1 the screen gave Mtb glucose medium: 8.179%; Mtb cholesterol medium: -26.09%.
With Cc1cc2n(n1)CC(CNC1CCN(Cc3ccncc3)CC1)CN2 (configuration not stated) the screen gave Mtb glucose medium: -0.5149% & -1.651%; Mtb cholesterol medium: -20.17%.
With CC(C)Oc1ccc(C(=O)N2CCCC2c2cnn(C)c2)cn1 (configuration not stated) the screen gave Mtb glucose medium: 2.961%; Mtb cholesterol medium: 17.04%.
With CC(C)NC(=O)CCNC(=O)Nc1cnn(-c2ccccc2Cl)c1 the screen gave Mtb glucose medium: 23.93% & 2.106%; Mtb cholesterol medium: 5.085%.
With Cc1cc(N(Cc2ccon2)S(C)(=O)=O)ccc1Br the screen gave Mtb glucose medium: -7.465%; Mtb cholesterol medium: -22.38%.
With CCS(=O)(=O)N1CCc2ccc(NC(=O)NC(C)(C)C)cc21 the screen gave Mtb glucose medium: 2.732%; Mtb cholesterol medium: -4.294%.
With CCn1ccnc1CN(C)C(C(=O)O)c1ccc(C(C)(C)C#N)cc1 (configuration not stated) the screen gave Mtb glucose medium: 32.18%; Mtb cholesterol medium: 8.815%.
With CCN(Cc1noc(C)n1)C(=O)C(c1ccccc1C)N(C)C (configuration not stated) the screen gave Mtb glucose medium: 0.7606%; Mtb cholesterol medium: -17.55%.
With Cc1ccc2oc(=O)n(CCC(=O)N3CCCC4(CNC(=O)O4)C3)c2c1 (configuration not stated) the screen gave Mtb glucose medium: 2.914%; Mtb cholesterol medium: -11.02%.
With CCc1n[nH]c(C2CN(C(=O)c3ccc4c(c3)CCCC4)CCO2)n1 (configuration not stated) the screen gave Mtb glucose medium: 25.74%; Mtb cholesterol medium: 1.1%.
With CC(C)Cc1noc(CN2CCCC2c2noc(C3CC3)n2)n1 (configuration not stated) the screen gave Mtb glucose medium: 10.8%; Mtb cholesterol medium: -40.52%.
With O=C1NCCN1C1CCN(Cc2ccccn2)CC1 the screen gave Mtb glucose medium: -12.81%; Mtb cholesterol medium: 15.55%.
With CCC(C(=O)NC1CCCC1)n1ccc2ncccc2c1=O (configuration not stated) the screen gave Mtb glucose medium: 13.86%; Mtb cholesterol medium: -9.376%.
With Cc1nn(C)c(N2CCOCC2)c1CNC(C)c1ccccn1 (configuration not stated) the screen gave Mtb glucose medium: 33.16%; Mtb cholesterol medium: 12.8%.
With [H][C@]12CN(C(=O)CC3CC3)C[C@@]1([H])C(=O)N(c1ccccc1)C2 the screen gave Mtb glucose medium: 0.7766%; Mtb cholesterol medium: -11.19%.
With Cc1ncc(CN(C)C(=O)Nc2cccc(N3CCOC3=O)c2)s1 the screen gave Mtb glucose medium: -29.08%; Mtb cholesterol medium: -25.84%.
With CO[C@@H]1CCN(C(=O)Cc2ccsc2)[C@H]1Cc1cccnc1.O=C(O)C(F)(F)F the screen gave Mtb glucose medium: 6.608%; Mtb cholesterol medium: -7.448%.
With Cc1nn(C)c(N2CCOCC2)c1CNCc1cccnc1 the screen gave Mtb glucose medium: -15.54%; Mtb cholesterol medium: -4.867%.
With [H][C@@]12CS(=O)(=O)C[C@]1([H])N(C(=O)c1ccnc(N)c1)CCN2CCC the screen gave Mtb glucose medium: 10.62%; Mtb cholesterol medium: -3.855%.
With O=C1CCC2(CCN(c3cccc(C(F)(F)F)n3)CC2)CN1CCO the screen gave Mtb glucose medium: -13.12%; Mtb cholesterol medium: 8.119%.
With CC(c1cccnc1)N1CCN(C(=O)NCc2cnn(C)c2)CC1 (configuration not stated) the screen gave Mtb glucose medium: 0.8775%; Mtb cholesterol medium: -3.265%.
With COCC(=O)N1C[C@@H](CN2CCCN(C)CC2)[C@@H](CO)C1 the screen gave Mtb glucose medium: -17.91%; Mtb cholesterol medium: 7.734%.
With OCC1CCCN1c1cc(NCc2ccc(Cl)s2)ncn1 (configuration not stated) the screen gave Mtb glucose medium: 4.736%; Mtb cholesterol medium: 2.348%.
With CCN(CC)C(=O)c1c(Cl)cnn1CC the screen gave Mtb glucose medium: 9.229%; Mtb cholesterol medium: -22.65%.
With CC(C)CC(=O)NC1CC2(CCN(CCF)CC2)Oc2ccccc21.O=C(O)C(F)(F)F (configuration not stated) the screen gave Mtb glucose medium: 13.05%; Mtb cholesterol medium: 6.878%.
With CN(C)[C@@H]1CN(C(=O)c2ccc3ccccc3n2)C[C@H]1O the screen gave Mtb glucose medium: 33.71%; Mtb cholesterol medium: 35.25%.

For reference, 2 entries once more:

| structure | Mtb glucose medium | Mtb cholesterol medium |
|---|---|---|
| `Cc1cc2n(n1)CC(CNC1CCN(Cc3ccncc3)CC1)CN2` (configuration not stated) | -0.5149% & -1.651% | -20.17% |
| `Cc1ncc(CN(C)C(=O)Nc2cccc(N3CCOC3=O)c2)s1` | -29.08% | -25.84% |

Measurements from “University of Dundee, Small-Polar-MMV Screening Library” (2021), ChEMBL document CHEMBL3988442.